Results: patent publication US20260071182A1 (GAIA BIOMEDICINE, published 2026)
Results are given in words; binding and its absence hold for the method and conditions named. Some binding calls cover weakened binding; strength is not graded here. Tags and fused reporters may be left off the sequences shown.

How the values were obtained:
[1] = target: T1, Biotinylated Human 2B4/CD244/SLAMF4 Protein, Fc, Avitag (2B4-H82F0) (human) (UniProt Q9BZW8); test: BLI (bio-layer interferometry) with expressed and purified clones
T1 sequence (biotinylated (Avitag), looked up): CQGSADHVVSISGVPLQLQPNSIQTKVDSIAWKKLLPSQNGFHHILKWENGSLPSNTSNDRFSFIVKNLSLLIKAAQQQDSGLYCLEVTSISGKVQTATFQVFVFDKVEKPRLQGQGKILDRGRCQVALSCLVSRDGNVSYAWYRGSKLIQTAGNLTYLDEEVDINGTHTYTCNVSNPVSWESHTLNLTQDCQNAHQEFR

[2] = target: T1, Biotinylated Human 2B4/CD244/SLAMF4 Protein, Fc, Avitag (2B4-H82F0) (human); test: BLI (Octet RED96), target on sensor, monobody 40 nM
[3] = target: T1, Biotinylated Human 2B4/CD244/SLAMF4 Protein, Fc, Avitag (2B4-H82F0) (human); test: BLI (Octet RED96)

Measured: binding

B1: Mb-2B4-CD-1 (designed binder)
chain: LEVVEASPTSIQISWDAPAVTVRYYGIYYGETGTSPWVYNGYVQEFTVPGSKSTATISGLKPGVDYTITVYAVTDQYKSWNLEEFHPISINYRTEIDKPSQ
notes: Monobody on human fibronectin type III domain scaffold, CD-FG library; also called 2B4 CD-FG No. 1; not shown: Sortase A recognition site, His tag and any linker (X8n8) at the C terminus; MPNR in the library
binds: all assays above

B2: Mb-2B4-CD-3 (designed binder)
chain: LEVVEASPTSIQISWDAPAVTVRYYEILYGETGTPPWIHKGWVQYFTVPGSKSTATISGLKPGVDYTITVYAVTVTPYGRKWVGMNGWPISINYRTEIDKPSQ
notes: Monobody on human fibronectin type III domain scaffold, CD-FG library; also called 2B4 CD-FG No. 3; not shown: Sortase A recognition site, His tag and any linker (X8n8) at the C terminus; MPNR in the library
binds: all assays above
